Results are given in words; binding and its absence hold for the method and conditions named. Some entries that bind do so weakly or less than the wild type.
Target: monomeric full-length gp120 WT of HIV-1 JR-CSF, without Fc tag (HIV-1 JR-CSF) (UniProt P20871)
Experiment: ELISA; both purified

Amino acid sequences for entries named in this document (tags omitted). Residues count along the entry.
UniProt Q9NNX6, residues 59-404: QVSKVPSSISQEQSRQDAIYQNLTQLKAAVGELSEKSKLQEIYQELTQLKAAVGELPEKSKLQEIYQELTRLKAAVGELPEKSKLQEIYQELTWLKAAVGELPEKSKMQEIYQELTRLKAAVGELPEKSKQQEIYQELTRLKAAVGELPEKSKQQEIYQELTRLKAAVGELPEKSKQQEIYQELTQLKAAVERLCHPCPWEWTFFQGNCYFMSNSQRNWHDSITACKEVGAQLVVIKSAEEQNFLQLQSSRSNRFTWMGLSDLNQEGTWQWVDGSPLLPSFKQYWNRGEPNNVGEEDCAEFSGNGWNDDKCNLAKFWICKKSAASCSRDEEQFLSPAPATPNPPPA

Substance: Fc-DC-SIGN (entire ectodomain of DC-SIGN fused in-frame with the Fc region of IgG1) (from UniProt Q9NNX6 59-404) (Fc fusion)
- binding: binds

From publication PMC1543650
